# Data reported in PubChem BioAssay AID720504 (National Center for Advancing Translational Sciences (NCATS), 2013).
# By UniProt entry, the sequences of proteins in these tests, tags left out.
# UniProt P53350, whole entry, looked up: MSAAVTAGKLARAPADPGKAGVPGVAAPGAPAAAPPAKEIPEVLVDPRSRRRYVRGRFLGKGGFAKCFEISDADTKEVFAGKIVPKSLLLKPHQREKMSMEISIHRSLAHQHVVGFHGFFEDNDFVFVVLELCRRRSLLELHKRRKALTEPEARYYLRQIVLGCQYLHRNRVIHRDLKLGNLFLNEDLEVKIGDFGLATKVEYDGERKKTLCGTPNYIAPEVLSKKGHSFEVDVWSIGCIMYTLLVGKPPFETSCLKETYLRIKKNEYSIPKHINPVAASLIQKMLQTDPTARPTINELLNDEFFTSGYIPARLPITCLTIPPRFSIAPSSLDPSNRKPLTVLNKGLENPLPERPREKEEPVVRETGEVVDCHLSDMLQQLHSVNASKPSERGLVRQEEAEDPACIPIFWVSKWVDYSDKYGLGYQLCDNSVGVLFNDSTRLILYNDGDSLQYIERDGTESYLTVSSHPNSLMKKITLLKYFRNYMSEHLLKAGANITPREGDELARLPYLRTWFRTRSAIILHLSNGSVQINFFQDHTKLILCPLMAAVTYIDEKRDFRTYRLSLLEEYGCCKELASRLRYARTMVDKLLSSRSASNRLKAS
# About 10,000 (2.8%) of roughly 360,000 compounds were called active. The shares of active, inactive and inconclusive entries below differ from those in the screen. The call rests on the fitted dose curve; in most records, active means well fitted inhibition curve with a large enough effect; inconclusive means small, poorly fitted or top-dose-only effect; inactive means flat fitted curve, though single readings scatter. Potencies beside an inconclusive call are fits to weak or partial responses and may not hold up.
# Molecular target: Serine/threonine-protein kinase PLK1 (Homo sapiens) (UniProt P53350)
# Test: qHTS for Inhibitors of PLK1-PDB (polo-like kinase 1 - polo-box domain): Primary Screen; further: nearly all actives have a fitted effect of over 65% in size; on max response, negative = inhibition: series mostly up to about 57 µM
# Conditions: Plk1 PBD binding of FITC phosphopeptide, fluorescence polarization
# On the % scale 0 is the no-effect control and ±100 the full control effect; potency means the concentration at half of the fitted maximal effect.
SMILES,Potency,"max response, negative = inhibition"
Cc1ccccc1OCCN1C(=O)C(=O)c2cccc(C)c21,"inconclusive: 29.9 µM [inhibitor, single point]",–
CCCCCC1=CCC/C1=N\NC(=O)c1ccc2c(c1)OCO2,"inconclusive: 26.7 µM [inhibitor, single point]",–
CC(C)N1C(=O)CC(Nc2cccc3cccc(N)c23)C1=O (stereo not given),"inconclusive: 26.7 µM [inhibitor, single point]",–
O=C(CSc1ccc2c(c1)OCCO2)NCCc1ccc(Cl)cc1Cl,"inconclusive: 23.8 µM [inhibitor, partial curve]",–
COc1ccc(CNC(=O)c2sc3nc4c(c(C(F)(F)F)c3c2N)CCC4)cc1OC,"inconclusive: 37.7 µM [inhibitor, single point]",–
O=C(O)c1ccc(C=NN=C2c3ccccc3-c3ccccc32)cc1,"inconclusive: 29.9 µM [inhibitor, single point]",–
COc1ccc(S(=O)(=O)Nc2nc3ccccc3nc2Nc2cccc(C(=O)O)c2)cc1,"inconclusive: 42.3 µM [inhibitor, partial curve]",–
CC(C)(C)OC(=O)N1CCC(c2cc(=O)n3[nH]cc(C(=O)Nc4ccc(F)c(Cl)c4)c3n2)CC1,active: 23.8 µM,–
O=[N+]([O-])c1cccc(NC(=S)Nc2nc(-c3ccccc3Cl)cs2)c1,"inconclusive: 23.8 µM [inhibitor, partial curve]",–
CS(=O)(=O)c1cccc(-c2nnc(NC(=O)c3ccc(S(=O)(=O)N4CCCC4)cc3)o2)c1,"inconclusive: 67 µM [inhibitor, partial curve]",–
COCCCn1cc(CN2CC(N3CCN(Cc4cccc(C)c4)CC3)CS2(=O)=O)nn1 (stereo not given),–,inactive: -11.1%
COc1ccc(-c2sc3cc(OC)c(OC)cc3c2C#CC(C)(C)O)cc1,–,inactive: 2.49%
CCc1nc(C)cn1S(=O)(=O)c1cc(C)c(OC)c(C)c1C,–,inactive: -1.25%
COc1cc(C)c(NC(=O)C(=S)NCc2ccccc2)cc1C,"inconclusive: 21.2 µM [inhibitor, partial curve]",–
CCCCNC(=O)CSc1nc(COc2ccccc2)nc2ccccc12,"inconclusive: 9.47 µM [inhibitor, partial curve]",–
Oc1c(C(c2ccc(F)cc2)N2CCc3ccccc3C2)sc2ncnn12 (stereo not given),"inconclusive: 18.9 µM [inhibitor, partial curve]",–
Cc1ccc(/C=C/C(=O)Nc2ccc(S(N)(=O)=O)cc2)o1,active: 29.9 µM,–
O=C1NC(=O)/C(=C/c2ccc(-c3cccc([N+](=O)[O-])c3)o2)S1,"inconclusive: 23.8 µM [inhibitor, partial curve]",–
CC(=O)OCC1(O)CC23CCC4c5ccoc5CCC4(C)C2CCC1C3 (stereo not given),"inconclusive: 26.7 µM [inhibitor, partial curve]",–
CC(=O)c1ccc(N=C2C(=O)Nc3ccccc32)cc1,"inconclusive: 26.7 µM [inhibitor, single point]",–
CC1CCC/C(=N\NS(=O)(=O)c2ccccc2)C1 (stereo not given),"inconclusive: 16.8 µM [inhibitor, partial curve]",–
COc1ccc(NC(=O)Cn2c(C)cc(=O)c3ccccc32)cc1,"inconclusive: 4.23 µM [inhibitor, single point]",–
Cc1cc2sc3ccccc3c(=O)c2c(C)c1O,"inconclusive: 26.7 µM [inhibitor, single point]",–
NNc1nc2cc3c(cc2s1)OCCO3,–,inconclusive: -37.5% [inhibitor]

SMILES,Potency,"max response, negative = inhibition"
CCOc1ccc(C(C)=O)cc1N1C(=O)C2C3C=CC(C3)C2C1=O (stereo not given),–,inactive: -16.3%
C/C(=N\N=C(/C)c1cccc(N)c1)c1cccc(N)c1,–,inactive: 0.93%
c1coc(C2=Nc3cccc4cccc(c34)N2)c1,"inconclusive: 33.6 µM [inhibitor, partial curve, poor fit]",–
Cn1c(N)c(C(=O)COC(=O)c2cc(-c3ccco3)nc3ccccc23)c(=O)n(C)c1=O,"inconclusive: 26.7 µM [inhibitor, single point]",–
COc1ccc(NC(=O)CCN2C(=O)C3C4CCC(C4)C3C2=O)cc1 (stereo not given),–,inactive: 0.117%
Cc1cc(NN)nc2ccc(Cl)cc12,–,inactive: -21.3%
O=C(Nc1nncs1)c1cc(-c2ccncc2)nc2ccc(Cl)cc12,"inconclusive: 26.7 µM [inhibitor, single point]",–
O=C(Nc1cccc(Cl)c1N1CCOCC1)c1ccc2c(c1)OCCO2,"inconclusive: 23.8 µM [inhibitor, single point]",–
COc1ccc(C2/C(=C(\O)c3cc(C)ccc3C)C(=O)C(=O)N2CCN(C)C)cc1OC (stereo not given),–,inactive: 2%
COc1ccc(S(=O)(=O)N2CCN(Cc3ccc4c(c3)OCO4)CC2)cc1F,"inconclusive: 37.7 µM [inhibitor, partial curve, poor fit]",–
O=c1c2cc(N3CCOCC3)ccc2[nH]c(=S)n1Cc1ccco1,"inconclusive: 26.7 µM [inhibitor, partial curve]",–
CC(C)(C)c1ccc(/C=N/NC(=O)C(=O)NCCCN2CCOCC2)cc1,"inconclusive: 37.7 µM [inhibitor, single point]",–
CCCc1cc(CN2CCOCC2)c(O)c(CN2CCOCC2)c1O,active: 6.7 µM,–
Cc1cc2c(c(=O)n1Cc1ccccn1)C(C(C)C)C(C#N)=C(N)O2 (stereo not given),"inconclusive: 33.6 µM [inhibitor, single point]",–
S=c1[nH]nc(-c2cc(-c3ccco3)[nH]n2)n1-c1cccc2ccccc12,"inconclusive: 29.9 µM [inhibitor, partial curve]",–
Cc1cc(-c2nnc(SCC(=O)Nc3ccccc3C(F)(F)F)n2N)n[nH]1,active: 5.97 µM,–
N#Cc1c(NC(=O)CCC(=O)O)sc2c1CCCCC2,active: 26.7 µM,–
COc1ccc(C(c2nnnn2C2CCCC2)N2CCN(C(=O)c3ccco3)CC2)cc1OC (stereo not given),"inconclusive: 23.8 µM [inhibitor, single point]",–
CN(C)CCCN(C(=O)CCOc1ccccc1)c1nc2c(F)cccc2s1,"inconclusive: 15 µM [inhibitor, partial curve]",–
Cc1nc2c(C(=O)NCc3ccc(F)cc3)c[nH]n2c(=O)c1Cl,"inconclusive: 29.9 µM [inhibitor, partial curve]",–
CCn1c(C)nc2cc(C(=O)NNC(=S)NC(=O)c3ccccc3)ccc21,"inconclusive: 33.6 µM [inhibitor, single point]",–
CCC1CCCCN1CCCNC(=O)c1ccc(CS(=O)(=O)c2ccccc2C)o1 (stereo not given),"inconclusive: 8.44 µM [inhibitor, full curve]",–
O=C(Nc1cccnc1)c1ccc([N+](=O)[O-])cc1Cl,"inconclusive: 6.7 µM [inhibitor, single point]",–
COc1cc(C(=O)N2CCN(Cc3ccc4c(c3)OCO4)CC2)c([N+](=O)[O-])cc1OC,–,inactive: 1%

SMILES,Potency,"max response, negative = inhibition"
CCOc1cc(/C=N/NC(=O)c2ccc(CN3CCOCC3)cc2)ccc1OCc1ccccc1,–,inactive: -9.48%
S=c1nc[nH]c2c1[nH]c1ccccc12,"inconclusive: 11.9 µM [inhibitor, partial curve]",–
O=C(COc1cc(Cl)c(Cl)cc1Cl)Nc1ccncc1,"inconclusive: 21.2 µM [inhibitor, partial curve]",–
CCOC(=O)c1c(-c2ccccc2Cl)csc1NC(=O)CSc1nc(C)cc(=O)[nH]1,"inconclusive: 33.6 µM [inhibitor, single point]",–
Cc1ccc(S(=O)(=O)N2[C@@H](c3cccc(Cl)c3)C(C(=O)O)=CC[C@H]2c2cccc(Cl)c2)cc1,active: 26.7 µM,–
Nc1nnnn1/N=C/c1cc(Cl)ccc1O,–,inconclusive: -30.5% [inhibitor]
Oc1c(Br)cc(Br)cc1/C=N/c1nccs1,active: 29.9 µM,–
O=[S@]1Oc2ccccc2-c2ccccc21,active: 2.12 µM,–
CCOC1=C2CN(S(=O)(=O)c3ccc(C)cc3)C(c3ccccc3)CC2N(S(=O)(=O)c2ccccc2Cl)C(c2ccccc2)C1 (stereo not given),–,inactive: 2.26%
N#Cc1cc2c([nH]c1=S)CCCC2,active: 21.2 µM,–
Cc1ccc(OCC(=O)Sc2ccc(C)cc2)cc1,active: 5.97 µM,–
O=C(COc1ccc2ccccc2c1)Nc1cccc(C(=O)Nc2ccccc2C(=O)O)c1,active: 23.8 µM,–
Cc1ccccc1NC(=S)Nc1cccc2cnccc12,"inconclusive: 29.9 µM [inhibitor, single point]",–
CCCC[C@H]1COCCS(=O)(=O)N1Cc1ccc(Br)cc1,–,inconclusive: -30.4% [inhibitor]
CN(C)C(CNC(=O)c1cc(-c2ccco2)nc2ccccc12)c1ccccc1 (stereo not given),"inconclusive: 11.9 µM [inhibitor, partial curve]",–
N#CCSc1nc2sccc2c(=O)n1-c1ccccc1,–,inactive: -5.29%
O=C(/C=C/c1ccc2ccccc2n1)c1cc(Cl)ccc1O,"inconclusive: 0.947 µM [inhibitor, full curve]",–
Cc1[nH]c2ccccc2c1/C=N/Nc1nc(Nc2ccc(F)cc2)nc(N2CCOCC2)n1,"inconclusive: 26.7 µM [inhibitor, single point]",–
O=C(O)c1ccn(COc2ccc(Br)cc2)n1,"inconclusive: 18.9 µM [inhibitor, partial curve]",–
O=C(Cc1ccc(NC2=NC3CS(=O)(=O)CC3S2)cc1)NCc1ccc(Cl)cc1 (stereo not given),–,inactive: -2.42%
COC(=O)c1[nH]c2ccc(Br)cc2c1NC(=O)CN1CCCc2ccccc21,–,inactive: -12.3%
Nc1ccc2nc3c(=O)n(CCc4ccccc4)c(=O)[nH]c3nc2c1,active: 4.23 µM,–

# 3 entries picked at random from the list so far, as already listed:
SMILES,Potency,"max response, negative = inhibition"
O=C1NC(=O)/C(=C/c2ccc(-c3cccc([N+](=O)[O-])c3)o2)S1,"inconclusive: 23.8 µM [inhibitor, partial curve]",–
CC(C)(C)OC(=O)N1CCC(c2cc(=O)n3[nH]cc(C(=O)Nc4ccc(F)c(Cl)c4)c3n2)CC1,active: 23.8 µM,–
Cc1cc(NN)nc2ccc(Cl)cc12,–,inactive: -21.3%
